PubChem BioAssay AID1159584, Peter MacCallum Cancer Centre, 2016
The whole screen tested about 18,000 reagents; this is an unselected part. Further read-outs or replicates are left out here. Reagent sequences are not shown. The record does not give: the amount of reagent, the time to read-out.

- Test: 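Genes that CDH1-null MCF10A cells selectively depend on to survive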 (primary screen)
- Cells: human MCF10A breast epithelial cells, parental and CDH1-null
- Reagents: siRNA against human genes
- Detection: 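ATP luminescence (CellTiter-Glo) viability per line relative to mean mock wells over all plates, and the ratio of CDH1-null to parental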
- Reading the numbers: CDH1-null / parental viability ratio: higher = CDH1-null cells survive relatively better than parental; CDH1-null viability vs mock: higher = more viable CDH1-null cells

target gene | CDH1-null / parental viability ratio | CDH1-null viability vs mock (fraction of mock)
PPP6C | 1.3 | 0.86
MYBL2 | 1.04 | 0.57
HK3 | 0.89 | 0.93
ZSCAN1 | 1.12 | 0.92
ITGAX | 1.03 | 1.04
PARP9 | 1.41 | 1.52
KRTAP5-8 | 1.19 | 0.92
PLCD4 | 1.08 | 0.97
DPH3 | 0.8 | 0.77
MYOM3 | 0.87 | 0.8
GRP | 1.49 | 0.55
RPL23 | 1.31 | 0.34
COPG2 | 1.16 | 1.04
FGGY | 0.93 | 0.98
SLC35F3 | 0.74 | 0.64
KIAA0408 | 0.91 | 0.9
PGAM5 | 1.06 | 0.76
MYL9 | 1.29 | 1.06
HOXA4 | 0.9 | 0.74
AIG1 | 0.86 | 0.74
HTR2A | 1.42 | 0.98
RETREG1 | 0.85 | 0.67
CHRM2 | 0.72 | 0.76
SERPINB11 | 1.25 | 0.9
AKR1C6P | 0.98 | 0.84
NDFIP1 | 1.35 | 0.65
S100A16 | 0.76 | 0.67
GRIP1 | 0.97 | 0.6
CASS4 | 1.34 | 0.78
QPRT | 1.64 | 0.97
IL1RAPL2 | 0.97 | 1.02
NR1I3 | 1.21 | 0.92
GNAT2 | 1.8 | 0.79
SMOC1 | 1.29 | 0.8
STX2 | 0.91 | 0.86
SAMD10 | 0.77 | 0.62
DLG5 | 0.84 | 0.81

Reprinted from above (10 entries):
target gene | CDH1-null / parental viability ratio | CDH1-null viability vs mock (fraction of mock)
GRIP1 | 0.97 | 0.6
CASS4 | 1.34 | 0.78
QPRT | 1.64 | 0.97
IL1RAPL2 | 0.97 | 1.02
NR1I3 | 1.21 | 0.92
GNAT2 | 1.8 | 0.79
SMOC1 | 1.29 | 0.8
STX2 | 0.91 | 0.86
SAMD10 | 0.77 | 0.62
DLG5 | 0.84 | 0.81

Next entries:
target gene | CDH1-null / parental viability ratio | CDH1-null viability vs mock (fraction of mock)
ELAVL3 | 0.76 | 0.29
FREY1 | 1.11 | 1.07
VPS50 | 0.68 | 0.7
KCNJ4 | 1.76 | 0.72
AK8 | 0.71 | 0.6
UBL4A | 1.35 | 1.13
GZMH | 1.3 | 0.91
CTAG2 | 0.83 | 0.72
MOB3C | 1.13 | 1.02
ZNF195 | 1.18 | 0.84
RSBN1 | 0.95 | 0.8
ZNF595 | 1.19 | 0.96
RASSF6 | 0.81 | 0.62
CSGALNACT1 | 1 | 0.78
OTOS | 0.89 | 1.13
CADM3 | 0.88 | 0.99
PPP1R15B | 1.1 | 0.46
HSD17B10 | 0.81 | 0.7
OR3A2 | 1.22 | 0.6
ZNF354B | 0.62 | 0.41
UTRN | 1.02 | 1.12
RAP1B | 0.94 | 0.94
SDK1 | 0.98 | 0.65
TBX22 | 1.55 | 0.96
VMAC | 1 | 0.55
NLRC5 | 0.92 | 0.57
UBE2U | 1.14 | 1
RMI2 | 0.9 | 0.76
MAPRE3 | 0.8 | 0.86
CREG2 | 0.97 | 1.11
PRR15 | 1 | 0.46
